Measurements reported in PubChem BioAssay AID1259405 (NCATS, 2018)

- Aim: 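Mouse-designed siRNAs used to find CHO productivity engineering targets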 (primary screen)
- Cell system: Chinese hamster CHO-K1 ovary cells with stable secreted eGFP expression
- Reagent: single siRNA against mouse genes, 0.8 pmol siRNA per well (2 µl of 400 nM stock)
- Time to read-out: 3 days
- Detection: 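Percent of the per-plate non-targeting control median for intracellular GFP per well by laser scanning cytometry and for cell viability by ATP luminescence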
- Reading the numbers: GFP, % of control: higher = more GFP per well, higher productivity; viability (ATP), % of control: higher = more viable cells (more ATP)
- Active means: 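Called active when intracellular GFP, relative to negative control, is at or above 120%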
This is one part, drawn at random, of about 50,000 reagents tested. In the full data, about 4,000 (8%) are marked active. 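Mouse siRNA library applied to hamster cells; one well for each siRNA.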 Reagents against one gene are numbered here.

Depletion of Vav3 #1 gave: GFP, % of control 132; viability (ATP), % of control 129; active.
For Vav3 #2 the deposit lists GFP, % of control 51; viability (ATP), % of control 51.9; inactive.
Against Vav3 #3, the values are GFP, % of control 85.4; viability (ATP), % of control 76.7; inactive.
Depletion of Npy4r #1 resulted in: GFP, % of control 107; viability (ATP), % of control 96.9; inactive.
With knock-down of Npy4r #2, the screen gave GFP, % of control 72.9; viability (ATP), % of control 70.8; inactive.
For Npy4r #3, the values are GFP, % of control 85.8; viability (ATP), % of control 71.1; inactive.
Depletion of Gstm6 #1 came out at: GFP, % of control 185; viability (ATP), % of control 111; active.
For Gstm6 #2 the deposit lists GFP, % of control 82.8; viability (ATP), % of control 100; inactive.
Gstm6 #3 gave GFP, % of control 50; viability (ATP), % of control 55.2; inactive.
After knock-down of Pclo #1, the record shows GFP, % of control 91; viability (ATP), % of control 74.5; inactive.
Pclo #2 showed GFP, % of control 113; viability (ATP), % of control 73.8; inactive.
Or4f61 #1 showed GFP, % of control 162; viability (ATP), % of control 65.2; active.
Knock-down of Or4f61 #2 gave: GFP, % of control 90.6; viability (ATP), % of control 61.9; inactive.
For Or4f61 #3, the values are GFP, % of control 47.6; viability (ATP), % of control 79.8; inactive.
After knock-down of 4933421I07Rik #1, the screen gave GFP, % of control 67.3; viability (ATP), % of control 79.6; inactive.
4933421I07Rik #2 gave GFP, % of control 73.3; viability (ATP), % of control 88.2; inactive.
For 4933421I07Rik #3 the deposit lists GFP, % of control 17; viability (ATP), % of control 14; inactive.

Active calls, among the entries above:
Vav3 #1: GFP, % of control = 132; viability (ATP), % of control = 129; outcome = active
Gstm6 #1: GFP, % of control = 185; viability (ATP), % of control = 111; outcome = active
Or4f61 #1: GFP, % of control = 162; viability (ATP), % of control = 65.2; outcome = active
